Test results published in US20030125311A1, “Compounds capable of binding with the cytoskeleton” (priority 2002, published 2003).
For at least one compound, name, drawing or mass did not settle the structure.

Amino acid sequences for entries named in this document (tags omitted). A change or cut given only in a name is not applied to a line headed by its entry. Residues count along the entry.
UniProt P15146: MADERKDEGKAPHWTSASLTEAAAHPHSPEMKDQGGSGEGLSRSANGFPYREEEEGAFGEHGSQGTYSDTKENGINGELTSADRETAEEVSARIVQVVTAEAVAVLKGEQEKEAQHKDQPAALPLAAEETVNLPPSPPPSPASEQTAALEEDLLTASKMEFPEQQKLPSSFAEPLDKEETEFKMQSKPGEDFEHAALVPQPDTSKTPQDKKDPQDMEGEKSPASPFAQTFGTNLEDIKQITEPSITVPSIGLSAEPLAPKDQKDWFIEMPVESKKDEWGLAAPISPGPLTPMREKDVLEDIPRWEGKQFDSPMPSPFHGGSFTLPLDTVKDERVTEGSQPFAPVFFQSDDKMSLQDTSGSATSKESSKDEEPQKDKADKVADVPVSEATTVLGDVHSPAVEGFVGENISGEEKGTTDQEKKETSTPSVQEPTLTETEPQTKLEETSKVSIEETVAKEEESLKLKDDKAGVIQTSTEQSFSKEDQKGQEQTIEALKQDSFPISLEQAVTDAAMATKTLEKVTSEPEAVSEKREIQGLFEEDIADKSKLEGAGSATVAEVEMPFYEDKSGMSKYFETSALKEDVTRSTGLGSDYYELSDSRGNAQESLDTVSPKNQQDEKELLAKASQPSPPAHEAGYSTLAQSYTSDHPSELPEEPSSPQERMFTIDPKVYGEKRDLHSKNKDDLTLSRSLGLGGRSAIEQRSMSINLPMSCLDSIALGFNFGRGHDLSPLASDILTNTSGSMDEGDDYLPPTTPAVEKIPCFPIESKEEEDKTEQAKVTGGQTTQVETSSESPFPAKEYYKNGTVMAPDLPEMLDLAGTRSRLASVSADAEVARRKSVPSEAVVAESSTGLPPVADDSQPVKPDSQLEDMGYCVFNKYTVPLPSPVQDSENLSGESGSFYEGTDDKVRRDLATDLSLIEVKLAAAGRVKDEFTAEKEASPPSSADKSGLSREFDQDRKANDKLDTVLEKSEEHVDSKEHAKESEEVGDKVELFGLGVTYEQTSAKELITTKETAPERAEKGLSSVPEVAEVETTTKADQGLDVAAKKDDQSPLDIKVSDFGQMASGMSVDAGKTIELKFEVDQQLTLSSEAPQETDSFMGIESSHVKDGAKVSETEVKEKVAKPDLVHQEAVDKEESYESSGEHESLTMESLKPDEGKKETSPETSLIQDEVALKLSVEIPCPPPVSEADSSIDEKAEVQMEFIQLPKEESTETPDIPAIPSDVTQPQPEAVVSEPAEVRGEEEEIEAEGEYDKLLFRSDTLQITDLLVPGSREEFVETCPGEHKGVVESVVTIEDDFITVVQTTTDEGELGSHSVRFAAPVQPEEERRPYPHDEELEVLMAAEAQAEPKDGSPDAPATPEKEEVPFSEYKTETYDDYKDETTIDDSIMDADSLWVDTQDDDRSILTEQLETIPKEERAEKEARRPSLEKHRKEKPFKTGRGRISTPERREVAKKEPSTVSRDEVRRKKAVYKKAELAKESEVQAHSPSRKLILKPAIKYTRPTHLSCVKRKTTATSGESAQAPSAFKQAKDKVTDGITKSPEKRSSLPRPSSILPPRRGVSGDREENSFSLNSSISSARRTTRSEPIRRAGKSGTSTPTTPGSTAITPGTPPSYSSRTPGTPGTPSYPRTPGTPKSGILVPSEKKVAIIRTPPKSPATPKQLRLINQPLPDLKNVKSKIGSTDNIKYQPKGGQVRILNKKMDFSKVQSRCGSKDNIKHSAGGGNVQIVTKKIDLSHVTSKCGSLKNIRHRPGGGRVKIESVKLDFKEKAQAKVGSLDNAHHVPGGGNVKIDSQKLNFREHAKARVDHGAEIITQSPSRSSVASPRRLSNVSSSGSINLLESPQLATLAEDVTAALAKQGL
UniProt A0A3Q1NAK9, 1-1867: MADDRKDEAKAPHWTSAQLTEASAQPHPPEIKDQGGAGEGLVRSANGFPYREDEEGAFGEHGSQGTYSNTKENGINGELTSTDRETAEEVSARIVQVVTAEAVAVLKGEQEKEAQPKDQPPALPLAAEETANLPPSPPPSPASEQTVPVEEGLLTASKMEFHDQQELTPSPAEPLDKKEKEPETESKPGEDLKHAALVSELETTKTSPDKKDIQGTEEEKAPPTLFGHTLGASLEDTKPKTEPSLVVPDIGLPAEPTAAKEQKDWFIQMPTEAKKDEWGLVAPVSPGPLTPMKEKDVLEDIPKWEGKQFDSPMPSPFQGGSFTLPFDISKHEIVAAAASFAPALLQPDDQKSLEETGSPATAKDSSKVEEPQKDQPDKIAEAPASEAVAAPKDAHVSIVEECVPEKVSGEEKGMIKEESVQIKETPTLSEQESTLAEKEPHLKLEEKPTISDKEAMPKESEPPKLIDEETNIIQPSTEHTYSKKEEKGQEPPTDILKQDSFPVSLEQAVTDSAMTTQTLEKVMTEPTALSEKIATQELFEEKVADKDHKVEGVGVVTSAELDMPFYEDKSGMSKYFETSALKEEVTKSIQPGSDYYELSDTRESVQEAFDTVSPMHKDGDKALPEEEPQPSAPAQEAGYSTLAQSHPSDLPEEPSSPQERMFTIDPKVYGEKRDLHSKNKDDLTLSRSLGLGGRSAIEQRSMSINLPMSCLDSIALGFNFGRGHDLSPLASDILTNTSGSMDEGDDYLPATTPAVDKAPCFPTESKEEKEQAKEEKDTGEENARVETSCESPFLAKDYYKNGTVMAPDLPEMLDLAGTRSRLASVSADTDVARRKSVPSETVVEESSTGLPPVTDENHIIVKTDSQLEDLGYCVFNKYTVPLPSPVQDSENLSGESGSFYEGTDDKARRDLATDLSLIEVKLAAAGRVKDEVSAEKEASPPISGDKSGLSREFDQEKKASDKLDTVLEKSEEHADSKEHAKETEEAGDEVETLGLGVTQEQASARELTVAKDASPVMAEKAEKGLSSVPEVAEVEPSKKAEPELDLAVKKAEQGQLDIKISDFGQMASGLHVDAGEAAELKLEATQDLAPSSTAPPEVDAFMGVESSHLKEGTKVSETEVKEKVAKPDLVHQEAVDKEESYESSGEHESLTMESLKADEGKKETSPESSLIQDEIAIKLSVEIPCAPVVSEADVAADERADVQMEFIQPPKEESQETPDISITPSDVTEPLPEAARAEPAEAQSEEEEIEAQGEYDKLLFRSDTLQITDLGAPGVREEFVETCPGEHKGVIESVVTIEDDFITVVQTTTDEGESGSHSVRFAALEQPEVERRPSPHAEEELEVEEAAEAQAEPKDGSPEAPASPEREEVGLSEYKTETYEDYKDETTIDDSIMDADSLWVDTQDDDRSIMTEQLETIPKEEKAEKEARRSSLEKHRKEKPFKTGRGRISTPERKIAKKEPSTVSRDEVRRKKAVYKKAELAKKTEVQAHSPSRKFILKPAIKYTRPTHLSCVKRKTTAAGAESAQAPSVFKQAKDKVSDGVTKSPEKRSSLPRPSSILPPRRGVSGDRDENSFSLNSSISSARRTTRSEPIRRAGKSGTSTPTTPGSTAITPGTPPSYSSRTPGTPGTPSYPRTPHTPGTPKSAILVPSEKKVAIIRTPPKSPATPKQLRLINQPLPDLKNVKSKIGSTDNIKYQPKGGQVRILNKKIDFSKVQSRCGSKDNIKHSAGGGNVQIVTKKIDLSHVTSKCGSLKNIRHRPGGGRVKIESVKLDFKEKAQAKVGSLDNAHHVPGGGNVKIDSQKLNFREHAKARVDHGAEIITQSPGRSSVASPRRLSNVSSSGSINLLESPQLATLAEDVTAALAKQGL

Assays:
[1] = tested on: rat brain cytosol binding sites of pregnenolone; experiment: Competition trials for PREG [3H] binding in brain cytosol; set-up: key: IC50(PREG)/IC50(competitor) ×100; PREG = 100; details: PREG = 100, 50% reduction of specific binding of 100 nM PREG [3H], mean±standard error, n=3
Protocol: (§1) In trials of competition between pregnenolone and different steroids for the binding studied, 0.2 ml of cytosol is incubated with 100 nM of PREG [^3H] and a 1-, 10-, 100-, and 1,000-fold excess of non-radioactive steroid.
To study the specificity of the binding of PREG [^3H], different steroids were used.
(§2) The relative competition index was determined as ratios of the concentrations of the competitor (in the […]) versus PREG causing a reduction of 50% of the specific binding of PREG [^3H]×100 (mean±standard error, n=3).

fetal microtubules = fetal microtubules (Rattus norvegicus, UniProt P15146); experiment: Competition for PREG [3H] binding to fetal microtubules (RCR); details: PREG = 100
Protocol: as §1
The microtubules are prepared starting from calf brain or adult or fetal rat brain according to an assembly/disassembly method, as a function of the temperature, in vitro (12).
as §2
The binding of PREG [^3H] to microtubules prepared by polymerization/depolymerization cycles was determined.

MAP2-tubulin copolymers = MAP2-tubulin copolymers (Bos taurus, UniProt A0A3Q1NAK9); experiment: Competition for PREG [3H] binding to MAP2-tubulin copolymers (RCR); set-up: species or system calf
Protocol: as §1, §2
Purified calf brain tubulin (90 μg/ml), MAP2 (45 μg/ml) or tau protein (25 μg/ml) is incubated with 100 nM of PREG [^3H], with or without a 1,000-fold excess of non-radioactive PREG.

## C[C@]12CC[C@@H]3c4ccc(O)cc4CC[C@H]3[C@@H]1CCC2=O [Estrone]
[1]
  R.C.R. 50 (relative competition index): 4.4

## C[C@]12CC[C@@H]3c4ccc(O)cc4CC[C@H]3[C@@H]1CC[C@@H]2O [Estradiol]
Fetal microtubules
  RCR: 1.3
MAP2-tubulin copolymers
  binding to MAP2 (in words): does not bind to MAP2
MAP2-tubulin copolymers; MAP2-tubulin copolymers, PREG = 100
  RCR: 3.2

## CC1(C)O[C@@H]2C[C@H]3[C@@H]4CCC5=CC(=O)C=C[C@]5(C)[C@@]4(F)[C@@H](O)C[C@]3(C)[C@]2(C(=O)CO)O1 [Triamcinolone acetonide]
[1]
  R.C.R. 50 (relative competition index): 1
